PubChem BioAssay AID1259254, NCATS, 2017
Screen: 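Genome-wide screen for genes that prevent DNA re-replication in cancer cells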 (primary screen). Cells: human HCT116 colorectal cancer cells. Knock-down reagent: single siRNA against human genes. Duration: 3 days. Measurement: 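Imaged Hoechst DNA stain sorts each cell into a cycle phase by DNA amount; per plate, G2 fraction set to 0% for non-targeting and 100% for GMNN siRNA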. Scale: G2 robust z-score: higher = more G2 cells, more excess DNA replication. Rule for the call: 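Active siRNAs have a G2 robust z of 5 or more median absolute deviations over the median, which in these data means about 38% or higher of GMNN control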.
Shown is an unselected part of about 59,000 reagents tested. About 1,550 of all reagents (2.6%) were called active. 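G2 share is only a proxy for re-replication; each gene was hit by three separate siRNAs, and active genes were retested.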 A number with no mark means an inactive call. The numbers tell different reagents against one gene apart. Not all columns of the deposit are shown. Reagent sequences are not shown. Not given: the amount of reagent.

Gene	reagent no.	G2 robust z-score
INTS7	1	1.86
INTS7	2	-0.176
INTS7	3	-0.719
OR4D9	1	-0.121
OR4D9	2	-0.763
OR4D9	3	-0.691
JARID2	1	-0.63
JARID2	2	-0.0601
JARID2	3	0.429
ANKRD54	1	-0.562
ANKRD54	2	2.26
ANKRD54	3	-0.787
HTN3	1	0.362
HTN3	2	-0.727
HTN3	3	-0.46
TMOD1	1	0.0899
TMOD1	2	0.591
TMOD1	3	1.45
OSR1	1	3.59
OSR1	2	1.19
OSR1	3	0.293
CA13	1	-1.22
CA13	2	0.481
CA13	3	0.492
SYTL4	1	0.144
SYTL4	2	1.56
SYTL4	3	2.87
KIF9	1	0.346
KIF9	2	-0.708
KIF9	3	8.49 (active)
SH3GL2	1	-0.263
SH3GL2	2	0.458
SH3GL2	3	0.013
ZNF644	1	5.61 (active)
ZNF644	2	-0.202
ZNF644	3	-0.491
WWP1	1	2.87
WWP1	2	2.88
WWP1	3	-1.29
PPP1R9B	1	-0.407
PPP1R9B	2	0.252
PPP1R9B	3	2.39
CDC42SE2	1	-0.349
CDC42SE2	2	-0.806
CDC42SE2	3	2.28
EXTL3	1	0.69
EXTL3	2	-0.968
EXTL3	3	-0.881
ANKRD62	1	1.36
ANKRD62	2	0.0387
ANKRD62	3	0.754
SPOCK1	1	3.74
SPOCK1	2	0.941
SPOCK1	3	-0.842
HOXD4	1	-0.379
HOXD4	2	1.29
HOXD4	3	-0.393
RAB3D	1	-0.808
RAB3D	2	1.2
RAB3D	3	-0.577
DHRS9	1	0.426
DHRS9	2	-0.826
DHRS9	3	-0.238
DNAJC24	1	0.922
DNAJC24	2	0.477
DNAJC24	3	-0.947
ACADSB	1	-1.44
ACADSB	2	-0.318
ACADSB	3	2.7
SYT2	1	0.112
SYT2	2	0.0418
SYT2	3	5.17 (active)
GEN1	1	-0.193
GEN1	2	-0.719
GEN1	3	8.34 (active)
GEN1	4	-0.398
GEN1	5	0.0155
GEN1	6	-0.181
RIMBP2	1	0.379
RIMBP2	2	-0.377
RIMBP2	3	-0.279
PCAT18	1	1.67
PCAT18	2	8.34 (active)
PCAT18	3	0.2
THY1	1	-1.36
THY1	2	0.439
THY1	3	-0.426

An excerpt from the list above, for reference:
Gene	reagent no.	G2 robust z-score
RAB3D	2	1.2
RAB3D	3	-0.577
DHRS9	1	0.426
DHRS9	2	-0.826
DHRS9	3	-0.238
DNAJC24	1	0.922
DNAJC24	2	0.477
DNAJC24	3	-0.947
ACADSB	1	-1.44
ACADSB	2	-0.318
ACADSB	3	2.7
SYT2	1	0.112
